Values of other authors in paper PMC10790361, “Membrane Partitioning of TEMPO Discriminates Human Lung Cancer from Neighboring Normal Cells” (Acta Naturae, 2023).
Like-named read-outs stand apart in the source and are kept apart here.

Tested on: HCT116 cell lines
Parameters: method as in PMID 9607601
Conditions: read-out: IC50 of doxorubicin, cited from earlier work

SMILES: COc1cccc2c1C(=O)c1c(O)c3c(c(O)c1C2=O)C[C@@](O)(C(=O)CO)C[C@@H]3O[C@H]1C[C@H](N)[C@H](O)[C@H](C)O1 [doxorubicin]
- IC50 (HCT116, pretreatment with TEMPOL): 53 µM
- IC50 (HCT116, without TEMPOL pretreatment): 380 µM
